Reference: patent US20210332360
A negative result means that nothing was seen under these conditions. For some of these results: Tags and fusion partners may be left off the protein sequences shown. For some of these results: The exact form of at least one protein or probe is not confirmed.

Protein sequences, listed by entry. Tags and fused reporters are not part of them. Lines headed by an entry give the natural chain unless they say otherwise; changes in a name come on top.
UniProt P83410: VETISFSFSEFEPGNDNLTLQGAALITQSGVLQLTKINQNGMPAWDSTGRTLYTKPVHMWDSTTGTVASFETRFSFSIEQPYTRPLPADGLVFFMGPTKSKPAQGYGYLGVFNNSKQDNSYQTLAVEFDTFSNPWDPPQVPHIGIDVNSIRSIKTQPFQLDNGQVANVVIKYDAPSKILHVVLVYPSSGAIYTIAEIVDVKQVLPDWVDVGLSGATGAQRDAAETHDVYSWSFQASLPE

Tests used:
[1] = target: T1, Amaranthus caudatus lectin (ACL) (Amaranthus caudatus) (UniProt Q71QF2); assay: binding assay; details: after the 5' primer region all dT replaced by 4 (alpha-D-mannose-triazole-modified C8-alkyne-dU); natural dC; lectin array 0.04-400 nM; only ConA gave strong signal; purified native protein; protein details: RayBiotech Lectin Array 40; label: particle-displayed, or 5'-biotinTEG; single-stranded DNA; variant of 3-1
T1 sequence (looked up, limits assumed): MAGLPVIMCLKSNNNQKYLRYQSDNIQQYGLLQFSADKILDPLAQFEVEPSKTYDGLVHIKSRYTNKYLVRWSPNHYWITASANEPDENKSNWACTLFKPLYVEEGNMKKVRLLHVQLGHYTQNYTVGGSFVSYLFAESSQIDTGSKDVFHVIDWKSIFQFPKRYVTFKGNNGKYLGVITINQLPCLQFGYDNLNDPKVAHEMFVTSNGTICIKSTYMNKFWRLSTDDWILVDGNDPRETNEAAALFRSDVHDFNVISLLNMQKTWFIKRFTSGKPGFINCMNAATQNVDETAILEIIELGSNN

[2] = test system: Datura stramonium lectin (DSA) (Datura stramonium); assay: binding assay; details: after the 5' primer region all dT replaced by 4 (alpha-D-mannose-triazole-modified C8-alkyne-dU); natural dC; lectin array 0.04-400 nM; only ConA gave strong signal; purified native protein; protein details: RayBiotech Lectin Array 40; label: particle-displayed, or 5'-biotinTEG; single-stranded DNA; variant of 3-1
[3] = target: Erythrina cristagalli lectin (ECA) (Erythrina cristagalli) (UniProt P83410); assay: binding assay; details: after the 5' primer region all dT replaced by 4 (alpha-D-mannose-triazole-modified C8-alkyne-dU); natural dC; lectin array 0.04-400 nM; only ConA gave strong signal; purified native protein; protein details: RayBiotech Lectin Array 40; label: particle-displayed, or 5'-biotinTEG; single-stranded DNA; variant of 3-1
[4] = target: T2, Griffonia simplicifolia lectin II (GS-II) (Griffonia simplicifolia) (UniProt Q41263); assay: binding assay; details: after the 5' primer region all dT replaced by 4 (alpha-D-mannose-triazole-modified C8-alkyne-dU); natural dC; lectin array 0.04-400 nM; only ConA gave strong signal; purified native protein; protein details: RayBiotech Lectin Array 40; label: particle-displayed, or 5'-biotinTEG; single-stranded DNA; variant of 3-1
T2 sequence (looked up, limits assumed): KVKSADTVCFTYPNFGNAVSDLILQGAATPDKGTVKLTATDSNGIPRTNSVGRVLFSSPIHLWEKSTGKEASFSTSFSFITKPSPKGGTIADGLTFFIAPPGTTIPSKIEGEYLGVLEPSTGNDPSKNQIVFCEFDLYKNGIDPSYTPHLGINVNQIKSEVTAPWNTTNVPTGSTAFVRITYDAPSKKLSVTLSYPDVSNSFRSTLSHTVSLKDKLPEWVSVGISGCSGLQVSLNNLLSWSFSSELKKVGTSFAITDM

[5] = test system: Hippeastrum hybrid lectin (HHA) (Hippeastrum hybrid); assay: binding assay; details: after the 5' primer region all dT replaced by 4 (alpha-D-mannose-triazole-modified C8-alkyne-dU); natural dC; lectin array 0.04-400 nM; only ConA gave strong signal; purified native protein; protein details: RayBiotech Lectin Array 40; label: particle-displayed, or 5'-biotinTEG; single-stranded DNA; variant of 3-1
[6] = test system: Lens culinaris agglutinin (LcH) (Lens culinaris); assay: flow cytometry; details: after the 5' primer region all dT replaced by 4 (alpha-D-mannose-triazole-modified C8-alkyne-dU); natural dC; virtually no binding at 10 nM; little at 1 uM; purified native protein; protein details: fluorescent label; label: particle-displayed, or 5'-biotinTEG; single-stranded DNA; variant of 3-1
[7] = target: T3, Narcissus pseudonarcissus lectin (NPA) (Narcissus pseudonarcissus) (UniProt C0HM45); assay: flow cytometry; details: after the 5' primer region all dT replaced by 4 (alpha-D-mannose-triazole-modified C8-alkyne-dU); natural dC; virtually no binding at 10 nM; little at 1 uM; purified native protein; protein details: fluorescent label; label: particle-displayed, or 5'-biotinTEG; single-stranded DNA; variant of 3-1
T3 sequence (looked up, limits assumed): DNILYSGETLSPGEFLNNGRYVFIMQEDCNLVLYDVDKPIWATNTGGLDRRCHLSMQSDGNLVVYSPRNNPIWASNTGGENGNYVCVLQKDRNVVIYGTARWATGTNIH

Measured: binding result

GATCCCAGTCCGAAGTAATCGTTGCATCTGCACGACTGGTGAGCTTGAGTGGCAGAAGAACTTGTGCAAACGGCTATAGG [3-1m]
no binding: [1] | [2] | [3] | [4] | [5] | [6] | [7]
